In PubChem BioAssay AID540256 (National Center for Advancing Translational Sciences (NCATS), 2011):
In all, about 300,000 compounds went through this assay and about 3,700 (1.2%) were called active. Inconclusive results, whose numbers are uncertain, are shown with a selection of clear calls. Calls follow the shape of the full dose curve; tested in HEK293 cells. Potencies of inconclusive entries are doubtful fits and often do not repeat.

Assay: qHTS for Inhibitors of binding or entry into cells for Lassa Virus; also: nearly all actives have a fitted effect of over 50% in size
Conditions: Lassa virus pseudotype entry inhibition, cell reporter; series mostly up to 37.9 µM
Potency is read from the fitted curve at half-maximal effect.

| SMILES | Potency |
| --- | --- |
| Cc1nc2c(c(SCC(=O)Nc3ccccc3C(F)(F)F)n1)CCC2 | inconclusive: 25.1 µM [activator, partial curve, poor fit] |
| Cc1c(F)cccc1NS(=O)(=O)c1cccs1 | inactive |
| O=c1c(-c2nc3ccccc3s2)cccn1Cc1ccccc1 | inconclusive: 13 µM [activator, partial curve] |
| Cc1ccc2nc(NC(=O)[C@H](C)N3C(=O)C4CC=CCC4C3=O)sc2c1 (stereo partly drawn) | inactive |
| Cc1ccc(-c2ccccc2[C@@H]2C[C@H]3CN(C)C(=O)[C@]34CCCN24)o1 | inactive |
| CCn1cc(S(=O)(=O)Nc2ccc3c(c2)OCCO3)cn1 | inactive |
| CN(C)c1ccc(CN2CCc3nc(N4CCN(c5ccccn5)CC4)ncc3C2)cc1 | inconclusive: 35.5 µM [inhibitor, single point] |
| CCN(CC)S(=O)(=O)c1ccc(/C(O)=C(\C#N)c2nc3ccccc3n2C)cc1 | inconclusive: 29.1 µM [inhibitor, single point] |
| COc1ccc(Nc2ncc(C(=O)N3CCN(c4ccc(OC)cc4)CC3)c3ccccc23)cc1 | inconclusive: 11.2 µM [inhibitor, partial curve, poor fit] |
| CCCn1nc(C(=O)NCC(C)(C)N2CCOCC2)c2ccccc2c1=O | inconclusive: 14.1 µM [activator, partial curve, poor fit] |
| O=C(c1ccc2c(c1)CCN2S(=O)(=O)c1ccc(Cl)cc1)N1CCN(c2ccccc2F)CC1 | inactive |
| Cc1nn(-c2ccccc2)c2c1C(O)n1c(nc3ccccc31)S2 (stereo not drawn) | inconclusive: 29.1 µM [inhibitor, single point] |
| CCN(c1ccccc1)S(=O)(=O)c1ccc(NC(=S)NC(=O)c2ccc(Br)o2)cc1 | inconclusive: 35.5 µM [inhibitor, single point] |
| CN1CCN(C(=O)c2c(NC(=O)c3ccco3)sc3c2CCC(C(C)(C)C)C3)CC1 (stereo not drawn) | inconclusive: 2.91 µM [inhibitor, full curve] |
| COc1cc(NC(=O)c2cccc(Cl)c2)c(OC)cc1NC(=O)CN1CCOCC1 | inconclusive: 25.1 µM [inhibitor, single point] |
| O=C(CSc1ccccc1)N1CCN(S(=O)(=O)c2cccs2)CC1 | inactive |
| CCCCCC/C(=N/O)c1ccccn1 | inactive |
| S=C(Nc1ccccc1)N1CCC(Cc2ccccc2)CC1 | inconclusive: 35.5 µM [inhibitor, single point] |
| C=CCOc1c(Br)cc(/C=N/O)cc1OCC | inconclusive: 29.1 µM [inhibitor, single point] |
| Cc1cccc(NC(=O)C2CCN(S(=O)(=O)c3cccc4nsnc34)CC2)n1 | inconclusive: 11.2 µM [inhibitor, partial curve] |
| O=C(CSc1ncn[nH]1)Nc1ccccc1C(=O)O | inactive |
| Cc1cc(NC(=O)c2cc(-c3ccc(Cl)cc3)on2)n(-c2ccccc2)n1 | inactive |

| SMILES | Potency |
| --- | --- |
| O=C(Nc1ccc(F)cc1)c1cccc(N2C(=O)C3C4C=CC(C5CC45)C3C2=O)c1 (stereo not drawn) | inconclusive: 11.2 µM [inhibitor, partial curve, poor fit] |
| COc1ccccc1C(=O)NNC(=O)c1nn(Cc2ccccc2)c(=O)c2ccccc12 | inconclusive: 35.5 µM [inhibitor, single point] |
| O=c1ccn(-c2cccc(C(F)(F)F)c2)nc1-c1ccn(-c2cccc(Cl)c2)n1 | inactive |
| O=C(CCCN1C(=O)/C(=C/c2cccs2)SC1=S)NNC(=O)c1ccccc1O | inconclusive: 10 µM [inhibitor, single point] |
| Cn1c(=O)c2c(nc(CN3CCN(c4ccccc4)CC3)n2CCc2ccccc2)n(C)c1=O | inconclusive: 3.55 µM [inhibitor, partial curve, poor fit] |
| O=C(COC(=O)c1ccc(Br)cc1)Nc1ccccc1Br | inconclusive: 11.2 µM [activator, partial curve, poor fit] |
| O=C(CNCc1ccccn1)Nc1cc(S(=O)(=O)N2CCCCC2)ccc1Cl | inconclusive: 14.1 µM [inhibitor, partial curve, poor fit] |
| Cc1cccc(-n2c(/C=C/c3ccc([N+](=O)[O-])o3)nc3ccccc3c2=O)c1 | inconclusive: 3.16 µM [inhibitor, full curve] |
| CC(C)N1CCC(N2CCN(Cc3ccc(-c4ccccc4Cl)o3)CC2CCO)CC1 (stereo not drawn) | inconclusive: 31.6 µM [inhibitor, single point] |
| CCCN1C(=O)c2ccccc2NC1c1ccc(OC)c(CSc2ccccn2)c1 (stereo not drawn) | inconclusive: 22.4 µM [inhibitor, single point] |
| O=C(O)COCC(=O)NCc1csc2ccccc12 | inconclusive: 3.98 µM [activator, partial curve, poor fit] |
| Cc1ccccc1NC(=O)c1sc2nc3c(c(-c4ccco4)c2c1N)CCCC3 | inactive |
| Fc1ccc2c(c1)C1C=CCC1C(c1cc3c(cc1Br)OCO3)N2 (stereo not drawn) | inactive |
| CCOC(=O)c1c(C)[nH]c(C)c1S(=O)(=O)NCC(=O)Nc1ccc(C)c(N(C)C)c1 | inactive |
| CC1CCN(CCCCOc2cccc(Br)c2)CC1 | inconclusive: 10.3 µM [inhibitor, partial curve] |
| O=c1/c(=C\c2cccn2-c2ccccc2)sc2nc3ccccc3n12 | inconclusive: 6.31 µM [activator, partial curve, poor fit] |
| C=CCn1c(=NC(=O)CC)n(C)c2ccccc21 | inconclusive: 2.59 µM [activator, full curve, poor fit] |
| COc1ccc(NC(=O)Cn2c(=O)n(CCc3ccccc3)c(=O)c3c4c(sc32)CCCC4)cc1 | inactive |
| CCN(CC)S(=O)(=O)c1cccc(C(=O)N[C@H](C(=O)Nc2nc3ccccc3s2)C(C)C)c1 | inconclusive: 7.94 µM [inhibitor, partial curve, poor fit] |
| Cc1ccc(N2C(=O)CSC23C(=O)N(Cc2ccccc2F)c2ccccc23)cc1F (stereo not drawn) | inconclusive: 6.31 µM [inhibitor, partial curve] |
| CCOC(=O)c1c(NC(=O)c2nc(SCC)ncc2Cl)sc2c1CCCC2 | inconclusive: 3.55 µM [activator, partial curve, poor fit] |

Another view of some results above.
SMILES	Potency
O=C(O)COCC(=O)NCc1csc2ccccc12	inconclusive: 3.98 µM [activator, partial curve, poor fit]
Cc1ccccc1NC(=O)c1sc2nc3c(c(-c4ccco4)c2c1N)CCCC3	inactive
Fc1ccc2c(c1)C1C=CCC1C(c1cc3c(cc1Br)OCO3)N2 (stereo not drawn)	inactive
